This is an account of results in PMC5520749.

Sequences of proteins named here, by UniProt entry; tags and fusion partners are left off.
UniProt O96013: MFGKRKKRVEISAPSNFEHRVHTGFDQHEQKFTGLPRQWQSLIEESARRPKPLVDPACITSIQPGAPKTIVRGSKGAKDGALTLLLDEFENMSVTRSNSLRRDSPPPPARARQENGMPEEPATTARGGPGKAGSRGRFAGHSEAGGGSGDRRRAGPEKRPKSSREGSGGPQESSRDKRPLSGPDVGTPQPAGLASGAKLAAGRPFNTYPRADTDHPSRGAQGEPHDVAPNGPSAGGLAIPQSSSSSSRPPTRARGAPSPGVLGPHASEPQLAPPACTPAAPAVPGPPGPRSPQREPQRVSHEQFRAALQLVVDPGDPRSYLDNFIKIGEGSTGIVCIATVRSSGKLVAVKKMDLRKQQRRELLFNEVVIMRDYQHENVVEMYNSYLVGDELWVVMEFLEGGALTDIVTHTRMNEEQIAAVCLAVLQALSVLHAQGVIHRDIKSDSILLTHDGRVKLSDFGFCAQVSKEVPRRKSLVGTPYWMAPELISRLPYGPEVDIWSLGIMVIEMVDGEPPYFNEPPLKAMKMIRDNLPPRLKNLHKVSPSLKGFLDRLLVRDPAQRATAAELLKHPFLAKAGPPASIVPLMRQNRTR
UniProt P11413: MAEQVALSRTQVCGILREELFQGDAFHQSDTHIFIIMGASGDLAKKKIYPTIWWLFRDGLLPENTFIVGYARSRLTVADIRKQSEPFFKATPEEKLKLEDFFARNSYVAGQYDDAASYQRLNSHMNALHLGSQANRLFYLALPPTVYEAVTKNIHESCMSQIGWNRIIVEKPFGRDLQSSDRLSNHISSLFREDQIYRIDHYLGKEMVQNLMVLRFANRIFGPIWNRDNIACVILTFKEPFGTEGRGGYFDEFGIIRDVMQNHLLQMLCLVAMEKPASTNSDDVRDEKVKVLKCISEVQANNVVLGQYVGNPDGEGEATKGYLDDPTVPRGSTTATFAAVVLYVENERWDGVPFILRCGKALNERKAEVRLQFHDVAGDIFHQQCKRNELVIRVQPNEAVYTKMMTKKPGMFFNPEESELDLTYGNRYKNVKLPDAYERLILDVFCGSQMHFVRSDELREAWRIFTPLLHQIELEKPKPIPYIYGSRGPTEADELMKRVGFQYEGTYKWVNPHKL
UniProt Q00987: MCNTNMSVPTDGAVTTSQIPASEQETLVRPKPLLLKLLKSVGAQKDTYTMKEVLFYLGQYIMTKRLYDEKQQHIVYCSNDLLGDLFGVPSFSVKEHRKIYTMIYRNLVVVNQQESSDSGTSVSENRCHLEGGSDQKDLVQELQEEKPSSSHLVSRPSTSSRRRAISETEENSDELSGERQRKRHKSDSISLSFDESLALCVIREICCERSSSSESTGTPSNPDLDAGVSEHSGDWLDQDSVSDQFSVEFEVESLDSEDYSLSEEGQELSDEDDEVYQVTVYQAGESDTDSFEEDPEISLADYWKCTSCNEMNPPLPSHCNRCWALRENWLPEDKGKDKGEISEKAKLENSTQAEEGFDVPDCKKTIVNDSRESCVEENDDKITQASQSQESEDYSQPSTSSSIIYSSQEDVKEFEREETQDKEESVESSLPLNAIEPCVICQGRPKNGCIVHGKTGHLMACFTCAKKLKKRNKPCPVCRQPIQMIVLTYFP

For assay [1], the target named is GST-PAK4 fusion protein (p21-activated kinase 4) (UniProt O96013). Description: pull-down; GST or GST-PAK4 fusion proteins incubated with Flag-tagged protein translated in vitro; bound proteins detected by western blotting; only the target purified.
Assay [2] deals with p21-activated kinase 4 (PAK4), endogenous in HCT-116 p53+/+ cells (human (endogenous in HCT-116)) (UniProt O96013). In words: co-IP; HCT-116 p53+/+ lysate (2 mg total protein) immunoprecipitated with specific antibody (G6PD or PAK4) or IgG control, protein A agarose beads, overnight at 4 °C, western blotting; for p53 the cells were treated with 5 nM DOX for 12 h. In general terms: A western blot detects proteins with antibodies after separation by electrophoresis.

The target in assay [3] is glucose-6-phosphate dehydrogenase (G6PD), endogenous in HCT-116 p53+/+ cells (human (endogenous in HCT-116)) (UniProt P11413). Described as above.

These are yes or no findings as the source states them, for the method shown. Binding seen in cells or lysates may run through a third protein. Some entries that bind do so weakly or less than the wild type.

Regarding “Flag-G6PD (glucose-6-phosphate dehydrogenase), translated in vitro (from UniProt P11413 1-515) (enzyme)”, the binding result in assay [1] is given as “binds”.
Turning to “Flag-p53, translated in vitro (from UniProt P04637 1-393)”, the binding result in assay [1] was “binds”.
For the substance “murine double minute 2 (Mdm2), endogenous in HCT-116 p53+/+ cells (from UniProt Q00987 1-491) (enzyme)”, the binding entry in assay [2] is listed as “binds”.
In the case of “p21-activated kinase 4 (PAK4), endogenous in HCT-116 p53+/+ cells (from UniProt O96013 1-591) (enzyme)”, in assay [3], the binding entry is reported as “binds”.
In the case of “p53, endogenous in HCT-116 p53+/+ cells (from UniProt P04637 1-393)”, the binding result in assay [2] is recorded as “binds”.
